Measured values as given in the supplement of paper PMC8975748.
Structures can show the parent of a compound that is named as a salt. ± gives the standard deviation of the averaged measurements. Some of the results follow. Values are raw readings; no control value is given beside them.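 The yeast community starts from one strain carrying four plasmids, each with an amino-acid or uracil synthesis gene and a fluorescent protein. Random plasmid loss creates mixed prototroph and auxotroph subpopulations. Cells were fixed and counted by automated confocal fluorescence imaging, and DMSO-treated wells served as the vehicle reference.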

tested on: Saccharomyces cerevisiae BY4741 SeMeCo community; experiment: imaged cell count per well (cells); higher = more cells; settings: 10 µM; 24 h; SM minimal medium
Description: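 Same SeMeCo high-content imaging drug screen: Selleck FDA-approved drugs at 10 µM, 24 h in SM medium, 384-well plates, 3 replicates.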

| Compound | imaged cell count per well |
| --- | --- |
| COCCOC(=O)C1=C(C)NC(C)=C(C(=O)OC(C)C)C1c1cccc([N+](=O)[O-])c1 (configuration not stated) [Nimodipine] | 26800 ± 4200 |
| COc1ccc(CN2CCN(C(c3ccc(F)cc3)c3ccc(F)cc3)CC2)c(OC)c1OC [Lomerizine 2HCl] | 23300 ± 2300 |
| CS(=O)(=O)c1ccc([C@@H](O)[C@@H](CF)NC(=O)C(Cl)Cl)cc1 [Florfenicol] | 23900 ± 6700 |
| N[C@@H](C(=O)N[C@@H]1C(=O)N2C(C(=O)O)=C(Cl)CS[C@H]12)c1ccccc1 [Cefaclor] | 24000 ± 460 |
| O=c1ccc2cc(O)c(O)cc2o1 [Esculetin] | 20800 ± 9700 |
| CCN1CCN(C(=O)N[C@@H](C(=O)N[C@@H]2C(=O)N3C(C(=O)O)=C(CSc4nnnn4C)CS[C@H]23)c2ccc(O)cc2)C(=O)C1=O [Cefoperazone] | 23300 ± 2700 |
| Clc1ccc(COC(Cn2ccnc2)c2ccc(Cl)cc2Cl)c(Cl)c1 (configuration not stated) [Miconazole Nitrate] | 3180 ± 630 |
| CCN1CCC[C@H]1CNC(=O)c1cc(S(N)(=O)=O)ccc1OC [Levosulpiride] | 20900 ± 2000 |
| CN[C@H]1CC[C@@H](c2ccc(Cl)c(Cl)c2)c2ccccc21 [Sertraline HCl] | 25700 ± 1600 |
| CCOC(=O)C1=C(C)NC(C)=C(C(=O)OC)C1c1cccc([N+](=O)[O-])c1 (configuration not stated) [Nitrendipine] | 23000 ± 430 |
| CO[C@@H]1[C@@H](OC(N)=O)[C@@H](O)[C@H](Oc2ccc3c(O)c(NC(=O)c4ccc(O)c(CC=C(C)C)c4)c(=O)oc3c2C)OC1(C)C [Novobiocin Sodium] | 21900 ± 2100 |
| CCOc1ccc2nc3cc(N)ccc3c(N)c2c1 [Ethacridine lactate monohydrate] | 24000 ± 3300 |
